Measured values taken from PMC3221503, “Study on Cytochrome P-450 Dependent Retinoic Acid Metabolism and its Inhibitors as Potential Agents for Cancer Therapy” (Scientia Pharmaceutica, 2011).

System: cytochrome P-450 dependent retinoic acid metabolism
Test: RA metabolism assay: in vitro inhibition of retinoic acid metabolism by P-450 inhibitors
Settings: male, rat, rat liver microsomes, pH 7.4, probe 3H-retinoic acid (RA), 3 μM

inhibition at 15 min, 100 μM: 8.7%
SMILES: Clc1ccc(CSC(Cn2ccnc2)c2ccc(Cl)cc2Cl)cc1 (stereo not shown) [Sulconazole]
